The target of assay [1] is T1, PIMT S656A-V5 (phospho-deficient mutant of human PIMT) (human) (UniProt Q96RS0).
T1 sequence: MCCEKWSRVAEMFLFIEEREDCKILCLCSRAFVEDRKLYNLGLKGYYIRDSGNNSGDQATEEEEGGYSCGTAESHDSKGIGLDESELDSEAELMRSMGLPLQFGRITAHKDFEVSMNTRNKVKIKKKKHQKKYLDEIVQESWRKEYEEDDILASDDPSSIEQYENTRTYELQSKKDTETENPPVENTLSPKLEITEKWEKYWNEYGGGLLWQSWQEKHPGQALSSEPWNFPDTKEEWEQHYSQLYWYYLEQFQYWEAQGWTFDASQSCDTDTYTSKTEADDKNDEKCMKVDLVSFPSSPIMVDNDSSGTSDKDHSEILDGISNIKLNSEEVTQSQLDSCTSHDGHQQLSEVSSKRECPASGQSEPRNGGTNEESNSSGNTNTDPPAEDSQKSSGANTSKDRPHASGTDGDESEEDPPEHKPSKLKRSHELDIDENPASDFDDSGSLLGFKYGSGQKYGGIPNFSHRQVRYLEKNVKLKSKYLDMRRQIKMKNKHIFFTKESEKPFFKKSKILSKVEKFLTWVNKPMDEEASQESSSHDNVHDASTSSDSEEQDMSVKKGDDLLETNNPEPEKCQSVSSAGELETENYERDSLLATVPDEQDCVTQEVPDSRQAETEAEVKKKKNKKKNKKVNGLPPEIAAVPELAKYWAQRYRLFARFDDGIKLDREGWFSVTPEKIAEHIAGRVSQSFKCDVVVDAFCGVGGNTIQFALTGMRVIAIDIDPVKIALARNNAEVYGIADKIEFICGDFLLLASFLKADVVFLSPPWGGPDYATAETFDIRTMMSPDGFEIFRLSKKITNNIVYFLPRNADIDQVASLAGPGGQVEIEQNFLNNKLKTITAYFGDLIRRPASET
The experiment in a line: co-IP; IP with anti-V5 antibody from lysates of mouse primary hepatocytes infected with lentivirus for PIMT-V5 (W or mutants), immunoblots for Ep300 and CBP; cells treated with DMSO or Forskolin for 4h (Figure 6B) or untreated 48h after infection (Figure 6D); RIPA lysis buffer.

Protein sequences, listed by entry. Tags and fused reporters are not part of them.
UniProt P45481: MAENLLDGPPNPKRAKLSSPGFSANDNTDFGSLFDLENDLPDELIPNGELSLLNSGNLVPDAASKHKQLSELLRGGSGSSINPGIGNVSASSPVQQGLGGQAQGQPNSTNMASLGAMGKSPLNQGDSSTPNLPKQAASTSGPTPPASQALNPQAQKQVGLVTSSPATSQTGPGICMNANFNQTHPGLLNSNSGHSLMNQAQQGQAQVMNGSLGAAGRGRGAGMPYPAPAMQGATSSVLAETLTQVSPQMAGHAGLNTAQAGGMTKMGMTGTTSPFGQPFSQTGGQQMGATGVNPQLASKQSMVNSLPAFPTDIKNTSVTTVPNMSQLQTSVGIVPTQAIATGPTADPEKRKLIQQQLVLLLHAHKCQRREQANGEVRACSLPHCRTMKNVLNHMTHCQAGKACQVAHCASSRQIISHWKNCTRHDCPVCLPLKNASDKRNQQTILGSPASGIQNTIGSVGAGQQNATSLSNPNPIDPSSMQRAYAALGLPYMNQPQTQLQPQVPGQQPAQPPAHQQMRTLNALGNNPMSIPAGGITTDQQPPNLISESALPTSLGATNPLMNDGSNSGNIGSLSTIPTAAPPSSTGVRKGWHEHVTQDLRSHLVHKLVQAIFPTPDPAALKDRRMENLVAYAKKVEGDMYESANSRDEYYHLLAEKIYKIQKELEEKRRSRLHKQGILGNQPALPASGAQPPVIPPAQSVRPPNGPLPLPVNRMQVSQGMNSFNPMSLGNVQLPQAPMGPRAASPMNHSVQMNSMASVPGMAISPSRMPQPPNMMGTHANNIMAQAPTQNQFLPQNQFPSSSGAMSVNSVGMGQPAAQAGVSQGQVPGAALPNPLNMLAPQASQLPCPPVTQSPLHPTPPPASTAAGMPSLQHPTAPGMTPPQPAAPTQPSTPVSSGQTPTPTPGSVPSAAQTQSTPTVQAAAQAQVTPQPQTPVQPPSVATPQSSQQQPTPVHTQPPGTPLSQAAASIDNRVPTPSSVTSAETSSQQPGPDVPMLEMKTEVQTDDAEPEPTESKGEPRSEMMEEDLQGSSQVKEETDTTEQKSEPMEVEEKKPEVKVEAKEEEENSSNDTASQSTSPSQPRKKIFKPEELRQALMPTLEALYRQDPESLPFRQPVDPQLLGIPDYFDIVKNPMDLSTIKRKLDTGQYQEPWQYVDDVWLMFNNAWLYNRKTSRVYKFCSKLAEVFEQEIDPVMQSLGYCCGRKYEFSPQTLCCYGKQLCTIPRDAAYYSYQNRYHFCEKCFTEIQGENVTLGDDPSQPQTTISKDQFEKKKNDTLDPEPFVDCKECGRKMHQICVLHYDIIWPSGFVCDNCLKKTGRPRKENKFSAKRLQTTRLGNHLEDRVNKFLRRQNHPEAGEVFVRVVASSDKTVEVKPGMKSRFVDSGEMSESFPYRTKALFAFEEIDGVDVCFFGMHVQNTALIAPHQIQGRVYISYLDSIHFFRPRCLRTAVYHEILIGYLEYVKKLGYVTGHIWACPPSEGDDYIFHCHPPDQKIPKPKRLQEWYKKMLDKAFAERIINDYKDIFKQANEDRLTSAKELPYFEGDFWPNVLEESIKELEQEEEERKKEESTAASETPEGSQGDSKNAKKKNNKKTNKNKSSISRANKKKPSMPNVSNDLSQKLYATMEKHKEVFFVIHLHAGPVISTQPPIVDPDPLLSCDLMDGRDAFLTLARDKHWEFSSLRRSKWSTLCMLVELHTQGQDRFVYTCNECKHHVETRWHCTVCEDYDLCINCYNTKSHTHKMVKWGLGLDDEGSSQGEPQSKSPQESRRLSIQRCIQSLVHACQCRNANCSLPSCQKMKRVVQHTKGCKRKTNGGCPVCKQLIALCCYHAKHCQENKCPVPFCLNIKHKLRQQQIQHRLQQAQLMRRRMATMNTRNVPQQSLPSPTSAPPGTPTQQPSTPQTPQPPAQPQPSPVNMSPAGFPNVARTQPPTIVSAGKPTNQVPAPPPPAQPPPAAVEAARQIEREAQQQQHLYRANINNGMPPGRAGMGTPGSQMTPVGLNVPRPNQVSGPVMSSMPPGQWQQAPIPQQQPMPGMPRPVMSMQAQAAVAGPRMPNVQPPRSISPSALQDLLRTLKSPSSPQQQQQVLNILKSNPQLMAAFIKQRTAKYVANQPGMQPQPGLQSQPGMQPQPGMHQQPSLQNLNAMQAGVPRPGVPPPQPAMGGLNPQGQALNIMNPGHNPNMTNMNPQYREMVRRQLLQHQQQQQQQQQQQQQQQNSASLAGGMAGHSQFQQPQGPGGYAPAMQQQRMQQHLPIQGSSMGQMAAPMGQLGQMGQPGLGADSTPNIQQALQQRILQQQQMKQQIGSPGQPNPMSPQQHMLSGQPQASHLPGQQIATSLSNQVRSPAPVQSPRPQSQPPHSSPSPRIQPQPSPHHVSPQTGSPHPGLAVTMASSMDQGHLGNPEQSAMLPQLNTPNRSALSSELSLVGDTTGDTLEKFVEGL
UniProt B2RWS6: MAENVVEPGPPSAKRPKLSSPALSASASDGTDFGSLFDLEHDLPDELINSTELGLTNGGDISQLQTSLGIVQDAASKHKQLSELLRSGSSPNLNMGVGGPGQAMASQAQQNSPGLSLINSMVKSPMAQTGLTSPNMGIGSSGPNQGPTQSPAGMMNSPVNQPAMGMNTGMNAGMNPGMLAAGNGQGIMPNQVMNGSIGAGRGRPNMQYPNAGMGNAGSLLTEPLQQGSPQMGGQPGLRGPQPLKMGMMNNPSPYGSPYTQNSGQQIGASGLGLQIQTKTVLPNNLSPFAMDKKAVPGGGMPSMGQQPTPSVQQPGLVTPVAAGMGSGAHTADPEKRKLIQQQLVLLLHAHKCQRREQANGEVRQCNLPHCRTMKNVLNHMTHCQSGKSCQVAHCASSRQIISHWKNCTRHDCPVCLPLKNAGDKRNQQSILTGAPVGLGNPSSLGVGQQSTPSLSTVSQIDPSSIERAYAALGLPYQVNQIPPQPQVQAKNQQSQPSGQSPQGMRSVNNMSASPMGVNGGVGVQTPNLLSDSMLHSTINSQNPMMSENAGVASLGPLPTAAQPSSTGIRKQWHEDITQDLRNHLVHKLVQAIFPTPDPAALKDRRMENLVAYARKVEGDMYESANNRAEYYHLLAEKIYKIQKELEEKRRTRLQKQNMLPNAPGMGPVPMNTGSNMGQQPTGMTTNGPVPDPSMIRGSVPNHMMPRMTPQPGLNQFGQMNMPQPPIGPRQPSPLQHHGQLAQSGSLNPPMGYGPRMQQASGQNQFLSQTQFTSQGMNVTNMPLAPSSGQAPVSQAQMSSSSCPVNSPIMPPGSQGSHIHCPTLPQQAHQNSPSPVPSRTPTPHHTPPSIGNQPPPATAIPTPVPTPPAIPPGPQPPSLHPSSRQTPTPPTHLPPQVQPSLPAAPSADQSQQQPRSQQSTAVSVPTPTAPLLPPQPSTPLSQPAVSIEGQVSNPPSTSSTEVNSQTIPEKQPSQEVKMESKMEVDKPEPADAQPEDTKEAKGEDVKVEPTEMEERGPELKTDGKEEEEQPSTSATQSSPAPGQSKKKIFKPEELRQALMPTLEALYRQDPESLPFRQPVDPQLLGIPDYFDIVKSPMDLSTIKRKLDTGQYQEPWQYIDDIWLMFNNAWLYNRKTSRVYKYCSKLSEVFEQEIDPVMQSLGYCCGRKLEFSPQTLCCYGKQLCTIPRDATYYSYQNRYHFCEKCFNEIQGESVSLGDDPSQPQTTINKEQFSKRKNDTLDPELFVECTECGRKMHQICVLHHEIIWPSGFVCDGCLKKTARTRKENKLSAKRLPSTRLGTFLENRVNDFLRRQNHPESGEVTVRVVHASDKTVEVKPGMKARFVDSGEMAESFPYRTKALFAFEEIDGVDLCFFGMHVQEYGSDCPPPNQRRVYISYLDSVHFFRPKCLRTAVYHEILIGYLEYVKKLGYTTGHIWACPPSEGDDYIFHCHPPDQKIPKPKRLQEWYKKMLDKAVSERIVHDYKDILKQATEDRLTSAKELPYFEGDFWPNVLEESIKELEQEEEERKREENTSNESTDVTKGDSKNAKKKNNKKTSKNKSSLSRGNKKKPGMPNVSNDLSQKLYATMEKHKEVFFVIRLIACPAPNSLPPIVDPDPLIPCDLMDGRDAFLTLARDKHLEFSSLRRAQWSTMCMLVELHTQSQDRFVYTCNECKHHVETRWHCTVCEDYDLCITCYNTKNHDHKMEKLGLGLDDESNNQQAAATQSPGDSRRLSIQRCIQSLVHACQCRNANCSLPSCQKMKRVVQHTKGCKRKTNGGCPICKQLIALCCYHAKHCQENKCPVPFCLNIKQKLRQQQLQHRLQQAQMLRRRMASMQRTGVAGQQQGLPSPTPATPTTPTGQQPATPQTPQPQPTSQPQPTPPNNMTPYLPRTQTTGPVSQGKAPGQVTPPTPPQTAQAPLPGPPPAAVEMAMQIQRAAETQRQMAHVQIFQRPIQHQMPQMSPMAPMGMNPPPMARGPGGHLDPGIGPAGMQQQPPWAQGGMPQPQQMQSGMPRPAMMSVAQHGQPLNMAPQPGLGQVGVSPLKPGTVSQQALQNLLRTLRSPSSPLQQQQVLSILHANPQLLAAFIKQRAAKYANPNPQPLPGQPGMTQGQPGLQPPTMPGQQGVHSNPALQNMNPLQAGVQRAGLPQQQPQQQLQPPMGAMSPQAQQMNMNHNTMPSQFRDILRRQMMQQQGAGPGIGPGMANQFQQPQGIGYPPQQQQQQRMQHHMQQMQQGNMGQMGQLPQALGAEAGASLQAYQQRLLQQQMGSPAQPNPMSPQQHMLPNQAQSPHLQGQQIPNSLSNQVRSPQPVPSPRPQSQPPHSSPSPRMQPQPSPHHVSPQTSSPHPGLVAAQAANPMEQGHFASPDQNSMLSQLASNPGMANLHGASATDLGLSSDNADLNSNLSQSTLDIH
UniProt Q923W1: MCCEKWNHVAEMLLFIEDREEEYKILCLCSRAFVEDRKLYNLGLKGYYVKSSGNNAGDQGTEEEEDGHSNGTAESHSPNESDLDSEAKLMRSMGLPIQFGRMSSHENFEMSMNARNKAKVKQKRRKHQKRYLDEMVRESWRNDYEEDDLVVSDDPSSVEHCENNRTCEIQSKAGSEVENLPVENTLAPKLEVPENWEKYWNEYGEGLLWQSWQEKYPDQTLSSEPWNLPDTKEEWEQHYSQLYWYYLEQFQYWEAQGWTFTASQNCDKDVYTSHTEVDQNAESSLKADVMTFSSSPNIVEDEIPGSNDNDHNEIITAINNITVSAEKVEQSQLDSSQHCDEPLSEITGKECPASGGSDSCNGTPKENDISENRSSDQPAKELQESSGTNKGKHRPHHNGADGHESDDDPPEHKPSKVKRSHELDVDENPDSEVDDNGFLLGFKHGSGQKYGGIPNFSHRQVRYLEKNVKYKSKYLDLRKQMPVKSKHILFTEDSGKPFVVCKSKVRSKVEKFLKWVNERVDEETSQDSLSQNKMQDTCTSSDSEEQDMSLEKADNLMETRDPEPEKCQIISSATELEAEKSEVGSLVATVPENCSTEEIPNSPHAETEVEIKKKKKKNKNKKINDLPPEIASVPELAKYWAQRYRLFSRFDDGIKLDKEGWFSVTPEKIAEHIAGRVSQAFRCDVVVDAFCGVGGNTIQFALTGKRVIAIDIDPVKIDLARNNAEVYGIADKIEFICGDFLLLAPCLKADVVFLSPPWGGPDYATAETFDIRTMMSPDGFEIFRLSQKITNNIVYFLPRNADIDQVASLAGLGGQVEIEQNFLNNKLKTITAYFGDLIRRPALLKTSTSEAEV

For assay [2], the target named is T2, PIMT S656D-V5 (phospho-mimetic mutant of human PIMT) (human) (UniProt Q96RS0).
T2 sequence: T1 sequence with A656D
The description is as above.

Assay [3] addresses PIMT-V5 (wild type human PIMT/TGS1, PRIP Interacting protein with Methyl Transferase domain/Trimethyl guanosine synthase I) (human) (UniProt Q96RS0). Described as above.
Assay [4] has as its target CBP (endogenous, mouse) (mouse (endogenous in primary hepatocytes and liver)) (UniProt P45481). The experiment in a line: co-IP; IP with anti-Ep300 or anti-CBP bound to protein A/G beads, 2h at 4 °C, from liver lysates of fed or 8h fasted mice, immunoblot for endogenous PIMT; RIPA lysis buffer; also livers of ob/ob and HFD-fed mice (Figures S9E-S9H).
Assay [5] concerns the target Ep300 (endogenous, mouse) (mouse (endogenous in primary hepatocytes and liver)) (UniProt B2RWS6). Described as above.

Numbering of substitutions follows the chain as printed. Results are given in words; binding and its absence hold for the method and conditions named. Binding seen in cells or lysates may run through a third protein. Some entries that bind do so weakly or less than the wild type. For some assays here: Sequences can lack the tags named with a protein.

The results in this text go back to publication PMC9972567.

On to “CBP (endogenous, mouse) (from UniProt P45481 1-2441)”, for which the binding entry in assay [1], in assay [2] and in assay [3] was “binds” each time.

“PIMT (endogenous, mouse) (from UniProt Q923W1 1-853)”: the binding entry in assay [4] and in assay [5] was “binds” in each case.
